The values that follow come from the supplement of paper PMC7666118.

Protein sequences, listed by entry. Tags and fused reporters are not part of them. Lines headed by an entry give the natural chain unless they say otherwise; changes in a name come on top.
UniProt Q92834: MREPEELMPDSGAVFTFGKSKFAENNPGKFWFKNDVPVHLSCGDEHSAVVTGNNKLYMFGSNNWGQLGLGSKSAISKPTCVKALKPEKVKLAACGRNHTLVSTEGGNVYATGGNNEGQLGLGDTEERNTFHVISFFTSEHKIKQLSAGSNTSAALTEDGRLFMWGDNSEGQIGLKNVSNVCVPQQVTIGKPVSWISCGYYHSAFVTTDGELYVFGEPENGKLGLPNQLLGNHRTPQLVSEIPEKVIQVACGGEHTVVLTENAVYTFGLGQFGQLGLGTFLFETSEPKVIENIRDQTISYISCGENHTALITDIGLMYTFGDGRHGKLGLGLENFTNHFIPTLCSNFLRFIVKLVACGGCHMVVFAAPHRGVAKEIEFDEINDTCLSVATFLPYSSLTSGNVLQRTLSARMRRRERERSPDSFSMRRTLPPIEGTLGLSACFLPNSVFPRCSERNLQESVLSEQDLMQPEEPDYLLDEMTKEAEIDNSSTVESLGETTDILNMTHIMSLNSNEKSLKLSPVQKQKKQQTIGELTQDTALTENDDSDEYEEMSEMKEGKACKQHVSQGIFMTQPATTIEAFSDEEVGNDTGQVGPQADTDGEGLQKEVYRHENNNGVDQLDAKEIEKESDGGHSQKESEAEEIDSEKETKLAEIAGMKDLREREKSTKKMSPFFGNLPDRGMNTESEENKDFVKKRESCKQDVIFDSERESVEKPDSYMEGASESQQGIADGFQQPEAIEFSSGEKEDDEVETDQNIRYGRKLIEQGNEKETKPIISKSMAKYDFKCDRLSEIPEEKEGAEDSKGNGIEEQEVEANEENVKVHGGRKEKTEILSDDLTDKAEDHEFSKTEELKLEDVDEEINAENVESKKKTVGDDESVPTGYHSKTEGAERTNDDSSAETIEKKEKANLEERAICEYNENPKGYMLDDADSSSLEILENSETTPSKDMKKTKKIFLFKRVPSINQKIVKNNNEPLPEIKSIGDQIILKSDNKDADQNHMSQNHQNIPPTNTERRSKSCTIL
UniProt P05109: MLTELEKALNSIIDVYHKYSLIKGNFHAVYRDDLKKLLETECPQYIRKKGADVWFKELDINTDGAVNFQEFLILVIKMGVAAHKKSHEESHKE
UniProt Q9H7N4: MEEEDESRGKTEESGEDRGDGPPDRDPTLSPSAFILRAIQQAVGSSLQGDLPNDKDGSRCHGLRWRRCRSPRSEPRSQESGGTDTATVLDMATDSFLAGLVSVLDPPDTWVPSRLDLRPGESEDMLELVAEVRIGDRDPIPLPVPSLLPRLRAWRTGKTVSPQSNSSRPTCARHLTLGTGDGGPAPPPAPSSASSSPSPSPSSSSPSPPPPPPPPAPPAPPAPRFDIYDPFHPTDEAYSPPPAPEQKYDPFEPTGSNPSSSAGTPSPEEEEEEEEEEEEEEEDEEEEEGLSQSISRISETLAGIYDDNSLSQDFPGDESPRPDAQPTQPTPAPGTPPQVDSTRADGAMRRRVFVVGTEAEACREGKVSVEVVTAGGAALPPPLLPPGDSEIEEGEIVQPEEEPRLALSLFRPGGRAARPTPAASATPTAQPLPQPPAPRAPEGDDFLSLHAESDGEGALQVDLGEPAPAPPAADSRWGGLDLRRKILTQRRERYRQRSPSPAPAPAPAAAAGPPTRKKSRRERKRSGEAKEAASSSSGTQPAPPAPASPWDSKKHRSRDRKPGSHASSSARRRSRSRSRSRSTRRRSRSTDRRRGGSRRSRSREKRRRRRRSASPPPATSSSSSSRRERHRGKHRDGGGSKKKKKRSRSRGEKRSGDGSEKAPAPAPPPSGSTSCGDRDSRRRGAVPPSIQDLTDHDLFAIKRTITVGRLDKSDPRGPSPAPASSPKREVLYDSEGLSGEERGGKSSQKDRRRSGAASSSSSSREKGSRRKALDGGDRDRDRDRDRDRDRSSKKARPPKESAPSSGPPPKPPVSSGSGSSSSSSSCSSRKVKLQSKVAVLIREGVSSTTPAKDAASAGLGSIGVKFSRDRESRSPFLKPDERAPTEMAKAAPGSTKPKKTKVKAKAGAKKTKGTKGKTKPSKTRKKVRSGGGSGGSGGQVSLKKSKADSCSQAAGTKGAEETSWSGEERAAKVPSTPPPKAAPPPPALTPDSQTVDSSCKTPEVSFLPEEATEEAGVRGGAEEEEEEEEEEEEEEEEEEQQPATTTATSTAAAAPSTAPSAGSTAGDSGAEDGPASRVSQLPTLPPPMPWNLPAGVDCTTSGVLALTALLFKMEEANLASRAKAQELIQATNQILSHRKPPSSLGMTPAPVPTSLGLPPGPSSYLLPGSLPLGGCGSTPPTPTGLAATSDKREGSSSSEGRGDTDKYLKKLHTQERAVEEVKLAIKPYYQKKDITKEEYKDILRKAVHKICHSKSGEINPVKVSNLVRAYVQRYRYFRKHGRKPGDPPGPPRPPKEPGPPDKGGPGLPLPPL
UniProt Q15437: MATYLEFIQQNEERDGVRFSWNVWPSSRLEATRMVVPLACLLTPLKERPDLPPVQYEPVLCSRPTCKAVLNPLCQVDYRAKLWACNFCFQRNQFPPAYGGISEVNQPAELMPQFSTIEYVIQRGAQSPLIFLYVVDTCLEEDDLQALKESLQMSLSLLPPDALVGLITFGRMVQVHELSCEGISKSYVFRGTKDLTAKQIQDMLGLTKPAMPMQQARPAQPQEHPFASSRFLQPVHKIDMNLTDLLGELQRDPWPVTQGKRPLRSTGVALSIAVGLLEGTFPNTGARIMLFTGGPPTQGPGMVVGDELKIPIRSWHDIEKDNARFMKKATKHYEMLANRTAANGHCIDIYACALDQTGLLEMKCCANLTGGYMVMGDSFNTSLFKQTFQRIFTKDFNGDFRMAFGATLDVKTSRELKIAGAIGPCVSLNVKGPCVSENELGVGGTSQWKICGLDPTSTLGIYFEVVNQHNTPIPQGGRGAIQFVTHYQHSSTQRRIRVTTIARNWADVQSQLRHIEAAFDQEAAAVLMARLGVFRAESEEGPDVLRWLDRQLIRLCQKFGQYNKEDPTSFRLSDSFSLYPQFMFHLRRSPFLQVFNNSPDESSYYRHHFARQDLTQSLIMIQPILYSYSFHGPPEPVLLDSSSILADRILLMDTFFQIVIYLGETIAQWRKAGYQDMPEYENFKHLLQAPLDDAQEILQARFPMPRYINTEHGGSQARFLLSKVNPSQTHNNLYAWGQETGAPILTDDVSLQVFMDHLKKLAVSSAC
UniProt Q9Y512: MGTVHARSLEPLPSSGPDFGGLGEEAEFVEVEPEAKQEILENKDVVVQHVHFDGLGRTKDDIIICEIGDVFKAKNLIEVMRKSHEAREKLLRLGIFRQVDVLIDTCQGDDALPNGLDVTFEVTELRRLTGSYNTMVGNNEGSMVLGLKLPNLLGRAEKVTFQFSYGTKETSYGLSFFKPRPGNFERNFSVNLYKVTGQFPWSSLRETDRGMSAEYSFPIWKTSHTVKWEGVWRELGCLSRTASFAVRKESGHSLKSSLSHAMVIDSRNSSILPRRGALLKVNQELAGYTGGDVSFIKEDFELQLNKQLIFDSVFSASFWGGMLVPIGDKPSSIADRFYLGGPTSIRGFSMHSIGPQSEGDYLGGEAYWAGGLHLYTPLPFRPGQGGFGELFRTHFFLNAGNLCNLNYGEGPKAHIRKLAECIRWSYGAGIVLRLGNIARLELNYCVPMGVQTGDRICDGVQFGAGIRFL
UniProt P60468, whole entry: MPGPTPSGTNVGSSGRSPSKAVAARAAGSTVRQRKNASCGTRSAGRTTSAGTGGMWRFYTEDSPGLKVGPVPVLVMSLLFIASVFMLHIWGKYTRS
UniProt Q9BY12: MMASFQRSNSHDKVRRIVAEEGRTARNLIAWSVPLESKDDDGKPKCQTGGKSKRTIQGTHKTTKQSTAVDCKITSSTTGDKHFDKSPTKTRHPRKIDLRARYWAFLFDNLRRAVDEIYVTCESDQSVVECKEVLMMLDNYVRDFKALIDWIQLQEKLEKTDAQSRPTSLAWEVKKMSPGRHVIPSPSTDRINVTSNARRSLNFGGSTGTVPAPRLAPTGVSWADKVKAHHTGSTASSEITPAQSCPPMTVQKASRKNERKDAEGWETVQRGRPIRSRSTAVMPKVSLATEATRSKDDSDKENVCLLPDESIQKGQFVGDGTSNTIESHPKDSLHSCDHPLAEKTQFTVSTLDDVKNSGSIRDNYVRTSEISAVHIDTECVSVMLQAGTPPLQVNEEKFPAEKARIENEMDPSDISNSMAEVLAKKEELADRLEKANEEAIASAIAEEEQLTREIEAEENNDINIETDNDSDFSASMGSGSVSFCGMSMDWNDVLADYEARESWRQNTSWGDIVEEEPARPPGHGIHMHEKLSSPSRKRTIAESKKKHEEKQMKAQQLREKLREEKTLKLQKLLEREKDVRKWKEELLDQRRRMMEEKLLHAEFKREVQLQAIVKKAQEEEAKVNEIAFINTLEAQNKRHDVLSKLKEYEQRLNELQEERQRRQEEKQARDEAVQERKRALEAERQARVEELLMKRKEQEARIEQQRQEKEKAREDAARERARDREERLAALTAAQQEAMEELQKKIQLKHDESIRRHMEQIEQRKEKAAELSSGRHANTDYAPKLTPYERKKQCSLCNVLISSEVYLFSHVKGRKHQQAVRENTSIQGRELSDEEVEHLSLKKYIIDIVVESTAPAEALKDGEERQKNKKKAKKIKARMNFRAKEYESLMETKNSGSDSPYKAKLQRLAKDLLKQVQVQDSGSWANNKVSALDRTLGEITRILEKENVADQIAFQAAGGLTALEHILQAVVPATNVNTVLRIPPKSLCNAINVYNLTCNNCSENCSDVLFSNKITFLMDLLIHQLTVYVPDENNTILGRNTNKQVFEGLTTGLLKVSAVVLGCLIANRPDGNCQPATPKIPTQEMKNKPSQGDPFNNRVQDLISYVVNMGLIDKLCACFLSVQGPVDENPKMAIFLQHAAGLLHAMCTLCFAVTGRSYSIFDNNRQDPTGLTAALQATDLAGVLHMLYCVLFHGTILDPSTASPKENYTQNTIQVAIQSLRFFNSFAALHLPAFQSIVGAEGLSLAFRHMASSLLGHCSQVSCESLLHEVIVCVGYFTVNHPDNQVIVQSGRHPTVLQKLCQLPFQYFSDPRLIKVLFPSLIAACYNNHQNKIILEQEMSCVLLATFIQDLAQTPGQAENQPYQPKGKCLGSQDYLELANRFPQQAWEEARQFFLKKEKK
UniProt O75150, whole entry: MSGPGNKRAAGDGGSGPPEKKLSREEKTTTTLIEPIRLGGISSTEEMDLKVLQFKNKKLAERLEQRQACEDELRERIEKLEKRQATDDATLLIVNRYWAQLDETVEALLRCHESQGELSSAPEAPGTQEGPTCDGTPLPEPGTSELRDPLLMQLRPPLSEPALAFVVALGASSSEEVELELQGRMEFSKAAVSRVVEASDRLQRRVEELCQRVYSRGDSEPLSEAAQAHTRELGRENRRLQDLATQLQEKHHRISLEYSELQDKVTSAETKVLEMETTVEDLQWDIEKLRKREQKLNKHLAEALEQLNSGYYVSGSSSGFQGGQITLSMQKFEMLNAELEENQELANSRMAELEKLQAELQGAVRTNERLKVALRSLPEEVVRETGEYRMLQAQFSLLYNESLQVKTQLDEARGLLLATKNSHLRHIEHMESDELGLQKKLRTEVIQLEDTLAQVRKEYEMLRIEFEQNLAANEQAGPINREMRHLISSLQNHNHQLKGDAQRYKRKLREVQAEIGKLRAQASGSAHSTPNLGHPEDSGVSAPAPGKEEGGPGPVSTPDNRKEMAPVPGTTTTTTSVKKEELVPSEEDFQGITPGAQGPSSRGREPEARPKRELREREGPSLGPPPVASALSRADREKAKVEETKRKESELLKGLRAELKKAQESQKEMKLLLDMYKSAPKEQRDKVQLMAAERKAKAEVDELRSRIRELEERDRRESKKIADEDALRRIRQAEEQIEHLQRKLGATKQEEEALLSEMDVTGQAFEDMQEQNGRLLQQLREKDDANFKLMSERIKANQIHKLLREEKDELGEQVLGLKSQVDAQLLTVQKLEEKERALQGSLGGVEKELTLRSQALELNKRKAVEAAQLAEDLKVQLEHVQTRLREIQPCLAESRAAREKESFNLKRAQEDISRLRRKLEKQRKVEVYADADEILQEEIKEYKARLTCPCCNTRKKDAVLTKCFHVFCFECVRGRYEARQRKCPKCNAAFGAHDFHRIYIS
UniProt Q15019: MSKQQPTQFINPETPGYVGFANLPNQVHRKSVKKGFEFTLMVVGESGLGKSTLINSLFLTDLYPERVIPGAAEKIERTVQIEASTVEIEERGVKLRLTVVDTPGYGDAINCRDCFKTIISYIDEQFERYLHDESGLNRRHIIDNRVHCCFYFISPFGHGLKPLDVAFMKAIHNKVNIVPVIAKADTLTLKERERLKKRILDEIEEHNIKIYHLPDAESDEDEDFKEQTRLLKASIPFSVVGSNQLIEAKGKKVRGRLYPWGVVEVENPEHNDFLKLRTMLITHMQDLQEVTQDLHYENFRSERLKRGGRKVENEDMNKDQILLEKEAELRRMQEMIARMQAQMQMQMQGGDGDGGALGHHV

The list shows a part of the results.

Compound in the assay: COc1ccc(Cn2ccc3cc(C)c(C(=O)NO)cc32)cc1
Briefly: dose-dependent thermal stabilisation call (2D-TPP, DLPTP, 10% FDR) (binary (1 = stabilised)); higher = stabilised by the compound. The settings on record: system: HL-60 intact cells; concentration range 0.04-10 µM. The protocol:
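2D thermal proteome profiling in intact HL-60 cells treated with BRD-3811 (0, 0.04, 0.29, 2, 10 uM) for 90 min at 37 C, then heated 3 min at one of 12 temperatures (42-63.9 C). Soluble protein was quantified by TMT10 MS. The value is the DLPTP call of the paper: dose-dependent thermal stabilisation over all temperatures at 10% FDR (F-test of a dose-response against a flat model); one experiment, one call per tested protein.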
Take RPGR (UniProt Q92834): the “dose-dependent thermal stabilisation call” value is inactive: 0.
On to SBDS (UniProt Q9Y3A5), for which the “dose-dependent thermal stabilisation call” value was inactive: 0.
For the target S100A8 (UniProt P05109), the “dose-dependent thermal stabilisation call” value was inactive: 0.
With SCP2 (UniProt P22307), the “dose-dependent thermal stabilisation call” value is inactive: 0.
Take RPS15 (UniProt P62841): the “dose-dependent thermal stabilisation call” value was inactive: 0.
Consider SEPT1 (UniProt Q8WYJ6), for which the “dose-dependent thermal stabilisation call” value was inactive: 0.
For RNF5 (UniProt Q99942), the “dose-dependent thermal stabilisation call” value was inactive: 0.
The figure for RPL18 (UniProt Q07020) is active: 1.
For the target SCAF1 (UniProt Q9H7N4), the “dose-dependent thermal stabilisation call” value was inactive: 0.
With SEC24B (UniProt O95487), the “dose-dependent thermal stabilisation call” value was inactive: 0.
Turning to SEMA4D (UniProt Q92854), the “dose-dependent thermal stabilisation call” value was inactive: 0.
As for SAP130 (UniProt Q9H0E3), the “dose-dependent thermal stabilisation call” value was inactive: 0.
Take RRM2 (UniProt P31350): the “dose-dependent thermal stabilisation call” value was inactive: 0.
For the target RPS13 (UniProt P62277), the “dose-dependent thermal stabilisation call” value was inactive: 0.
The figure for RPL37A (UniProt P61513) is inactive: 0.
In the case of SEC63 (UniProt Q9UGP8), the “dose-dependent thermal stabilisation call” value is inactive: 0.
Regarding SEC23B (UniProt Q15437), the “dose-dependent thermal stabilisation call” value was inactive: 0.
With SAMM50 (UniProt Q9Y512), the “dose-dependent thermal stabilisation call” value was inactive: 0.
The figure for SEPSECS (UniProt Q9HD40) is inactive: 0.
In the case of RP6-213H19 1, the “dose-dependent thermal stabilisation call” value is inactive: 0.
Next, RPAP3 (UniProt Q9H6T3): inactive: 0; SEC61B (UniProt P60468): inactive: 0.
As to RPL6 (UniProt Q02878), the “dose-dependent thermal stabilisation call” value was inactive: 0.
For RPA2 (UniProt P15927), the “dose-dependent thermal stabilisation call” value is inactive: 0.
For the target ROCK2 (UniProt O75116), the “dose-dependent thermal stabilisation call” value was inactive: 0.
As to RPL18A (UniProt Q02543), the “dose-dependent thermal stabilisation call” value was inactive: 0.
Turning to RP9 (UniProt Q8TA86), the “dose-dependent thermal stabilisation call” value was inactive: 0.
The figure for SEH1L (UniProt Q96EE3) is inactive: 0; for RP3-402G11 5 it is inactive: 0.
As to RPL28 (UniProt P46779), the “dose-dependent thermal stabilisation call” value is inactive: 0.
As to RRBP1 (UniProt Q9P2E9), the “dose-dependent thermal stabilisation call” value is inactive: 0.
Next, SEP15 (UniProt O60613): inactive: 0.
On to SCAPER (UniProt Q9BY12), for which the “dose-dependent thermal stabilisation call” value was inactive: 0.
For SCARB1 (UniProt Q8WTV0), the “dose-dependent thermal stabilisation call” value is inactive: 0.
For the target RWDD1 (UniProt Q9H446), the “dose-dependent thermal stabilisation call” value is inactive: 0.
As to RNF40 (UniProt O75150), the “dose-dependent thermal stabilisation call” value was inactive: 0.
The figure for RPS18 (UniProt P62269) is inactive: 0.
SELI (UniProt Q9C0D9): the “dose-dependent thermal stabilisation call” value is inactive: 0.
Next, RPLP2 (UniProt P05387): inactive: 0; SEPT2 (UniProt Q15019): inactive: 0.
